ChEMBL document CHEMBL2086312, “Synthesis and biological evaluation of new 5-benzylated 4-oxo-3,4-dihydro-5H-pyridazino[4,5-b]indoles as PI3Kα inhibitors” (Eur J Med Chem, 2012)

Tested on: MDA-MB-231
Experiment: Antiproliferative activity against human MDA-MB-231 cells incubated for 48 hrs by […] dye staining based assay
Format: functional, cell-based
Settings: MDA-MB-231, 48 h
How it was run: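 Cells were grown per ECACC recommendations and seeded in triplicate at 2 × 10³ (HCT-116) or 4 × 10³ (other lines) per well. After 24 h attachment, they were exposed 48 h to increasing concentrations of 0.1 to 25. Cells were then fixed in cold 90% ethanol/5% acetic acid, nuclei were Hoechst-stained, and nuclei were counted by automated imaging.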

Structure (SMILES): CC[C@H](CO)Nc1nc(NCc2ccccc2)c2ncn(C(C)C)c2n1 [SELICICLIB]
- IC50: 12 µM
